Patent publication US6316405A (Wisconsin Alumni Research Foundation, priority 1999, dated 2001)
Some peptides are written in HELM: one residue between dots, names in brackets for other building blocks, links after the first $.

Assay: general procedure: peptide synthesis; HMPB resin (C-terminal acids); PAL resin (C-terminal amides); BOP-Cl, BOP, DCC or EDCI/HOBt (solution phase); DIPCDI/HOBt (solid phase); PyAOP
Conditions: All free lysines are TFA salts

In the case of “Fmoc-(D)Ala-MeLeu-MeLeu MeVal-MeLeu(3-OH)-Abu-(D)MeSer(OBn)-MeLeu-Val-MeLeu-Lys(2Cl-Cbz)-OBn”, the step yield (coupling step, run 1) was 53% and the step yield (coupling step, run 2) was 33-53%.

Work on Boc-MeLeu-Val-MeLeu-Lys(2Cl-Cbz)-OBn yielded a step yield (coupling step) of 69%.

With “PEPTIDE1{[PAc].[Lys(Alloc)].L.V.F.F.K.[am]}|CHEM1{[FKBP-OCH2CO]}$PEPTIDE1,CHEM1,7:R3-1:R2$$$V2.0” the conjugation yield (conjugation step) was 20%.

“Fmoc-K(2Cl-Cbz)LVIFF/[MeLeu (3-OH)^1, DMcAla^4,6, Lys^7 ]CsA conjugate” showed a conjugation yield (conjugation step) of 65%.

For acetylcyclosporin A, the step yield (late stage modification step) was 65%.

“Fmoc-EK(2Cl-Cbz)LVFF-NH2 /[MeLeu(3OH)^1, (D)MeAla^4,6, , Lys^7 ]CsA conjugate” gave a conjugation yield (conjugation step) of 37%.

For “Ac-EK(2Cl-Cbz)LVFF-NH2 /[MeLeu(3-OH)^1, (D)MeAla^4,6, Lys^7 ]CsA conjugate”, the conjugation yield (conjugation step) was 40%.

In the case of “Acetonide-MeLeu(3-OH)-Abu-(d)MeSer(OBn)-MeLeu-Val-MeLeu-Lys(2Cl-Cbz)-OBn”, the step yield (coupling step, run 1) was 70% and the step yield (coupling step, run 2) was 51-70%.

Substance “Boc-Abu-(D)MeSer(OBn)-MeLeu-Val-MeLeu-Lys(2Cl-Cbz)-OBn” has a step yield (coupling step, run 1) of 68% and a step yield (coupling step, run 2) of 69%.

In the case of “Boc-(D))MeSer(OBn)-MeLeu-Val-MeLeu-Lys(2 Cl-Cbz)-OBn”, the step yield (coupling step) was 71%.

For “H-MeLeu(3-OH)-Abu-Sar-MeAla-Val-McAla-Lys(2Cl-Cbz)-Obn”, the step yield (late stage modification step) was 84%.

In the case of “PEPTIDE1{[Fmoc].[Lys(Alloc)].L.V.F.F.K.[am]}|CHEM1{[FKBPi10-6]}$PEPTIDE1,CHEM1,7:R3-1:R2$$$V2.0”, the conjugation yield (conjugation step) was 13%.

“Boc-(D)MeSer(OTBS)-MeLeu-Val-MeLeu-Lys(2Cl-Cbz)-OBn” gave a step yield (coupling step, run 1) of 65% and a step yield (coupling step, run 2) of 58%.

For “PEPTIDE1{[ac].Q.[Lys(2Cl-Cbz)].L.V.F.F}$$$$V2.0”, the outcome (conjugation step) was “no product isolated”.

In the case of “PEPTIDE1{[PAc].K.L.V.F.F.[am]}|CHEM1{[FKBP-O(CH2)5CO]}$PEPTIDE1,CHEM1,2:R3-1:R2$$$V2.0”, the conjugation yield (conjugation step) was 43%.
